Source: PMC12700548
Results are given in words; binding and its absence hold for the method and conditions named. In cells and extracts the contact can be indirect. Some entries that bind do so weakly or less than the wild type.

Protein sequences, listed by entry. Tags and fused reporters are not part of them. Lines headed by an entry give the natural chain unless they say otherwise; changes in a name come on top. Chains listed by the source or under a name are the forms on record and can include a tag or linker.
UniProt P16520: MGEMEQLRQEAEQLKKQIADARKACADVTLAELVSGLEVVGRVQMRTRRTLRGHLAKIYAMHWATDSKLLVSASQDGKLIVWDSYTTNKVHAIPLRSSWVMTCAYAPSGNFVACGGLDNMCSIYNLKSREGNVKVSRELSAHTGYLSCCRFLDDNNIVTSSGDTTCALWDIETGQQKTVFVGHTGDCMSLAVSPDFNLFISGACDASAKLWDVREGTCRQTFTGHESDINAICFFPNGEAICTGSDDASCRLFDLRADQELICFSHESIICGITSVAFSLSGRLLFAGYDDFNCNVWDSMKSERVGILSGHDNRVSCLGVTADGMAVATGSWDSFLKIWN
UniProt P50148: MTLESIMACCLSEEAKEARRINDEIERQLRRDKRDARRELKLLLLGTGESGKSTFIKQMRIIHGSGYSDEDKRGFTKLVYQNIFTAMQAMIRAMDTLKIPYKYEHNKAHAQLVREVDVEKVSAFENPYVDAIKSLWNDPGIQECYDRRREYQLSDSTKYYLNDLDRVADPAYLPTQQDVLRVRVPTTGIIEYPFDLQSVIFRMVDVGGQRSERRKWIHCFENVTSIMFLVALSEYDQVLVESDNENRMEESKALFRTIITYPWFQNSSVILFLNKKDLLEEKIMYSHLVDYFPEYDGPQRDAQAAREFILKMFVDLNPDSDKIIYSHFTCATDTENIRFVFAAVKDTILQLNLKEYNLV
GαsS-RLuc8 (TRUPATH biosensor) (P63092-2, form named): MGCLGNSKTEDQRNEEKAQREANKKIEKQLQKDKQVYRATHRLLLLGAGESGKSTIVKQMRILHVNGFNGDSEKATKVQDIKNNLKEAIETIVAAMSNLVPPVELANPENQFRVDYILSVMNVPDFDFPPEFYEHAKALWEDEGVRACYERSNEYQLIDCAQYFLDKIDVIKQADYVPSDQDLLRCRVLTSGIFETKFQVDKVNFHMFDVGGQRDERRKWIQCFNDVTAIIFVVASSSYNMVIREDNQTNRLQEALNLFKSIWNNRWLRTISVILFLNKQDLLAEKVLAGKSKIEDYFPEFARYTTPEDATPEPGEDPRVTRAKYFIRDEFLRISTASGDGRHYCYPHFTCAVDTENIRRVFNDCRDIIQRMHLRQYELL

Target: Gβ3 / Gγ9-GFP (TRUPATH biosensor) (UniProt P16520)
Assay: FRET or BRET; TRUPATH G protein dissociation assay in HEK293T cells transfected with receptor (FLAG-β1AR, FLAG-β2AR or FLAG-AT1R), Gα-RLuc8, Gβ3 and Gγ9-GFP; pretreated with 0.19% DMSO or 30 μM C11, stimulated with agonist for 10 minutes at 37°C; BRET decays on receptor activation

Row | binding | Substance
1 | binds | Gαq-RLuc8 (TRUPATH biosensor) (from UniProt P50148 1-359)
2 | binds | GαsS-RLuc8 (TRUPATH biosensor) (from UniProt P63092-2 1-380)
